The results in this text go back to PMC4111287.

This assay concerns the target soluble human PEX3 (reading frame from G25, C235S) (human) (UniProt P56589). Description: native MS; each protein alone, nano-electrospray under conditions that preserve non-covalent interactions; monomers analysed at a concentration five-fold higher than the 10 µM of the complex; both purified.

Results are given in words; binding and its absence hold for the method and conditions named.

B1: soluble human PEX3 (reading frame from G25, C235S) (domain or fragment, UniProt P56589 25-373)
chain: GVYILGKYGQKKIREIQEREAAEYIAQARRQYHFESNQRTCNMTVLSMLPTLREALMQQLNSESLTALLKNRPSNKLEIWEDLKIISFTRSTVAVYSTCMLVVLLRVQLNIIGGYIYLDNAAVGKNGTTILAPPDVQQQYLSSIQHLLGDGLTELITVIKQAVQKVLGSVSLKHSLSLLDLEQKLKEIRNLVEQHKSSSWINKDGSKPLLSHYMMPDEETPLAVQACGLSPRDITTIKLLNETRDMLESPDFSTVLNTCLNRGFSRLLDNMAEFFRPTEQDLQHGNSMNSLSSVSLPLAKIIPIVNGQIHSVCSETPSHFVQDLLTMEQVKDFAANVYEAFSTPQQLEK
As to B1, the binding entry is “no binding (tested: five-fold higher than 10 µM)”.
